Experimental data reported in patent US6972343B1, “Quaternary bis-ammonium salt precursors and their uses as prodrugs having an antiparasitic activity” (CNRS, priority 1999, dated 2005).
Some of these results come from one statement about several compounds together.

Tested on: Babesia divergens
Test: Antibabesiasis activity in vitro against Babesia divergens
Format: cell-based
Procedure: The products TE4c, TS3b and P1 were also evaluated in vitro for their activities against Babesia divergens and B. canis.

N,N′-dimethyl-N,N′-(5-chloropentyl)-1,16-hexadecane diamine hydrochloride [P1]
IC50: < 20 nM
